These are yes or no findings as the source states them, for the method shown. Binding seen in cells or lysates may run through a third protein. Some binding calls cover weakened binding; strength is not graded here.
Target: Cysteine (C)-X-C Receptor 4 (CXCR4) (human (endogenous in PC3)) (UniProt P61073)
Assay: co-IP; 1 mg PC3 whole cell lysate immunoprecipitated for CXCR4 (Santa Cruz antibody) overnight at 4°C, Protein A/G Plus-Agarose beads 2 hrs at 4°C, 3 washes with PBS; western blot for TRN1

Amino acid sequences for entries named in this document (tags omitted). A change or cut given only in a name is not applied to a line headed by its entry. Chains listed by the source or under a name are the forms on record and can include a tag or linker.
Cysteine (C)-X-C Receptor 4 (CXCR4) (human (endogenous in PC3)) (P61073, form named): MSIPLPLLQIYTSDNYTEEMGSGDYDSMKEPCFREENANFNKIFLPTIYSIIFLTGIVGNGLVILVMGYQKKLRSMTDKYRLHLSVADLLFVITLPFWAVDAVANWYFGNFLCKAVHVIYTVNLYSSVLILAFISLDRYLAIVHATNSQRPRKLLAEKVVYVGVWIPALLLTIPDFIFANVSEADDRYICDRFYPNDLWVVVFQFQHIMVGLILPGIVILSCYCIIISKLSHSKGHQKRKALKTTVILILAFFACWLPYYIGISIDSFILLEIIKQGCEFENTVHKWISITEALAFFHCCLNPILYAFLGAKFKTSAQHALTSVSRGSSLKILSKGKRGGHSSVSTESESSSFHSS
UniProt Q92973: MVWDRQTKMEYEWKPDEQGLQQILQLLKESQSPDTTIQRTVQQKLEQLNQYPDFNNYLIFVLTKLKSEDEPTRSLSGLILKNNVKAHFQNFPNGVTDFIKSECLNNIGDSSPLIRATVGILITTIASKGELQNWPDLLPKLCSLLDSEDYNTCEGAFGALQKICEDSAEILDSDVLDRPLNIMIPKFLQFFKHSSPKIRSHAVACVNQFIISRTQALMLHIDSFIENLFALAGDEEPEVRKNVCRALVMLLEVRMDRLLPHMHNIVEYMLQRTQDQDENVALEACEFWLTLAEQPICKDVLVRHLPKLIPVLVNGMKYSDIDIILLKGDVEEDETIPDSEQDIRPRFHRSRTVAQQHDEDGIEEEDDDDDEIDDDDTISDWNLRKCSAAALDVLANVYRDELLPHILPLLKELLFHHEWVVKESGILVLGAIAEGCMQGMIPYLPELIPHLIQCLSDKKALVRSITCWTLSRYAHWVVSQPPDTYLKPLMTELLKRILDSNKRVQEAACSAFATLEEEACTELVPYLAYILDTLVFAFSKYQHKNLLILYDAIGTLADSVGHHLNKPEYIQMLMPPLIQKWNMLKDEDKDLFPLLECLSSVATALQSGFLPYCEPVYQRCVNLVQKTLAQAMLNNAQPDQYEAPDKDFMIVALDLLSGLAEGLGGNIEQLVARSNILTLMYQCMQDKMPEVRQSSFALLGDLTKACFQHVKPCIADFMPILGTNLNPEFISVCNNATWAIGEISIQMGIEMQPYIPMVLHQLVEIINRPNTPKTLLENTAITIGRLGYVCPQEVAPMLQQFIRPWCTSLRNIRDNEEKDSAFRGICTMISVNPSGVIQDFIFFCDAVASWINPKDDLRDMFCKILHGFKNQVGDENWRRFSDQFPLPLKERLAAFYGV

“Transportinβ1 (TRN1) (from UniProt Q92973 1-898)” was tested, and the binding was “binds”.

— article PMC3585330
